Some of the results follow.
B1: il10ra_site1_normal_mot_HHH_b2_00612_000000251_0001_1_14_H_._HHH_b1_00889_0002_0000300025_0000002_0 (protein)
chain: SSSSDEVLRIAREAVELLRELLERGDEEEAEEVLERARELLEEAGNQLAVESLEYFFRAFSSSSS
B2: il10ra_site1_normal_mot_HHH_b1_00814_af2_000000078_0001_43_57_H_._HHH_b2_07731_0001_0000100001_0000001_0_af2pred_0001 (protein)
chain: SSSSDTEERVEELLEQAEELHKEGNPEEAVRLIREAIELAAQANDPELAQLVAEFAAELISSSSS
B3: il10ra_site1_normal_mot_HHH_b1_07466_000000214_0001_1_19_H_._HHH_b1_02849_af2_0001_0000300013_0000002_0 (protein)
chain: SSSSSLERKVELAIRFAEALLKAGNPEAAERLIRLLLDVVRRLGNEELAEELERILEEIRKSSSS
B4: il10ra_site1_normal_mot_7f9b3cf633cfd27bca007b62ade1be3b_0001_1_000000138_0001_17_32_H_._513c16ae44941e68898e0f7c259e5a28_0001_1_af2_0001_0000600018_0000001_0 (protein)
chain: DELEERLEELVKRGDEEKVAELAVRVAEEKGVFSPEQLEALRRFIEALFKDNEEAAKELARAVIN
B5: il10ra_site1_normal_mot_HHH_b1_07835_af2_000000063_0001_1_16_H_._HHH_b1_07298_af2_0001_0000200003_0000001_0_af2pred_0001 (protein)
chain: SSSSDEEEKVRELLEELEELLEEGDEEKFAQLAAEVARRIDENNNEELFRLLIEILSKWLKSSSS
B6: il10ra_site1_sap_13_mot_HHH_b2_00093_af2_000000025_0001_40_54_H_._HHH_b1_02510_0001_0000200028_0000001_1_0001 (protein)
chain: SSSSSSDLEELLEEIEEAIEEGDREKALKLAQEAIRLAFQKRDEEVLQRVWELVKRLASSSSSSS
B7: il10ra_site1_sap_18_mot_HHH_b1_07466_000000214_0001_1_19_H_._HHH_b1_05714_0001_0000200012_0000001_0_0001 (protein)
chain: SSSSSDLAREVYELLREAVELLHEGDREEARKVLEEAEELAEEAGNLNMLFNVEMLQRIASSSSS
B8: il10ra_site1_normal_mot_HHH_b2_07521_000000141_0001_20_37_H_._HHH_b1_01332_0001_0000100002_0000001_0_af2pred_0001 (protein)
chain: SSSSDEEEKRLRLALRLARFLIEQGDEEAARKLLEWIRELAKRANDEEALEEAQRLLEEVGSSSS
B9: il10ra_site1_normal_mot_HHH_b1_05865_af2_000000211_0001_1_17_H_._HHH_b2_01928_0001_0000400023_0000001_0 (protein)
chain: SSSSSSDLYELARELLELAFRFRDQELLKLVWEAYREANEHNDPRLLEELLEEAEEELSSSSSSS
B10: il10ra_site1_sap_20_mot_49468d6c54d8157f7969f91124172a68_0001_af2_000000173_0001_37_51_H_._HHH_b2_03073_0001_0000400027_0000001_0_0001_af2pred_0001 (protein)
chain: SSSSDQEEHIARLIEKLARLLAKNGNPEDAKKTVENALHAAKVLNDEEAHEILEELLKELSSSSS
B11: il10ra_site1_normal_mot_HHH_b2_01705_af2_000000069_0001_44_57_H_._HHH_b1_08172_af2_0001_0000400018_0000001_1_af2pred_0001 (protein)
chain: SSSSDEEEERLEELLEELRRALEEGDFEEAWKILEEISRLASRLSDRELAREAIELFLRGSSSSS
B12: il10ra_site1_normal_mot_HHH_b2_00230_000000227_0001_1_19_H_._HHH_b2_02595_0001_0000100008_0000002_0 (protein)
chain: SSSSDEWYRALREAIEEVLRLFREGNPEEARRLLEEFLRELEELGNRQAALQLRFLLRRISSSSS
B13: il10ra_site1_normal_mot_HHH_b2_00622_af2_000000153_0001_40_57_H_._HHH_b1_00148_0001_0000300014_0000001_0_af2pred_0001 (protein)
chain: SSSSSEELLRRLLKAAEQLLEKGNPELAKLTLRDAIAAARALGDEELLRLLEELLEEIEKSSSSS
B14: il10ra_site1_sap_22_mot_HHH_b2_02354_af2_000000157_0001_40_56_H_._HHH_b2_00262_af2_0001_0000400007_0000002_0_0001_af2pred_0001 (protein)
chain: SSSSSSEELKKLLEEVFELLRQGNKEEAEELLEEALELAEKLNDPLLVLLESLLEHIRGSSSSSS
B15: il10ra_site1_normal_mot_HHH_b2_03328_af2_000000127_0001_1_19_H_._HHH_b2_01231_0001_0000300042_0000002_0 (protein)
chain: SSSSNEESEEVYRLSRKALELLANGNPEEAEKVVERALEIAEENNNFALAFAAELALRAIGSSSS
B16: il10ra_site1_normal_mot_HHH_b1_07768_000000240_0001_18_35_H_._HHH_b2_05766_0001_0000100021_0000001_0 (protein)
chain: SSSSDRTLRFVVEFVLRVAEESAKEDPERARHQLERLAEHLKQADDEELLEEVERLLEEIGSSSS
B17: il10ra_site1_normal_mot_HHH_b2_03220_af2_000000223_0001_23_40_H_._HHH_b1_07482_0001_0000300031_0000001_0 (protein)
chain: SSSSSEEAEEVWELLRRALEIREKDPEEARELVEEAEEIAKEANNENLEFVIRFLLRDINSSSSS
B18: il10ra_site1_sap_26_mot_HHH_b2_07521_000000141_0001_20_37_H_._HHH_b2_01251_af2_0001_0000600023_0000001_0_0001 (protein)
chain: SSSDQESYEIAKRAIEEALELAKNGNPEEARRVLEEAIEELEELGNRLTVLQLRSLLELEKSSSS
B19: il10ra_site1_normal_mot_HHH_b1_06994_000000193_0001_40_55_H_._HHH_b1_08244_0001_0000300057_0000002_0 (protein)
chain: SSSSDELEELIKAALRLIRQALEHGDPRTARFLLLAAKIRIEELGDEELEEELRELEEEVESSSS
B20: il10ra_site1_normal_mot_HHH_b1_05609_af2_000000134_0001_1_18_H_._HHH_b2_04330_af2_0001_0000300024_0000001_0 (protein)
chain: SSSSSDNEQALRLSVEAFRLALRGNPEEARELLEEALELAEEANNERLFRQIEELLKAQHSSSSS
B21: il10ra_site1_normal_mot_HHH_b1_02062_000000185_0001_1_20_H_._HHH_b1_03085_0001_0000200006_0000002_0 (protein)
chain: SSSSSEREAYELSREAAEADSEGNPEEAREIAEEALELAEEAGNEVIAFTIRFLLKIIRENSSSS
B22: il10ra_site1_sap_27_mot_9c3e5e2d2b9ffb70dc788f52fbfab6d5_0001_1_000000198_0001_1_14_H_._HHH_b1_00765_0001_0000900024_0000001_0_0001 (protein)
chain: SSSSNEEYEEFKELVRLVVQLRRNGNPEEAKEVLKELEKLAEEANNWALRFVVELLERDLSSSSS
B23: il10ra_site1_sap_9_mot_HHH_b1_01307_000000115_0001_1_18_H_._HHH_b1_07449_0001_0000600036_0000001_0_0001 (protein)
chain: SSSSDEEIREEVEELLEEARRISNAQEVYELLKRAIELAAELNDPELFKLIHRVLREWQRSSSSS
B24: il10ra_site1_normal_mot_HHH_b2_03801_000000188_0001_20_36_H_._HHH_b1_08533_0001_0000100001_0000002_0 (protein)
chain: SSSSSSDVAERAVRRLLHAARQVDDEEYVRLTLRFAKALAEDANDPELEEEVERVERELSSSSSS

Target: il10ra, Q13651
Assay: yeast display titration

Apparent Kd, inactive:
B1 no binding seen, B2 no binding seen, B3 no binding seen, B4 no binding seen, B5 no binding seen, B6 no binding seen, B7 no binding seen, B8 no binding seen, B9 no binding seen, B10 no binding seen, B11 no binding seen, B12 no binding seen, B13 no binding seen, B14 no binding seen, B15 no binding seen, B16 no binding seen, B17 no binding seen, B18 no binding seen, B19 no binding seen, B20 no binding seen, B21 no binding seen, B22 no binding seen, B23 no binding seen, B24 no binding seen
